Data published in patent US20080280868A1, “Pyridine Derivatives and Their Use as Cb2 Receptor Modulators” (priority 2004, published 2008).
Where a name gives a salt, the structure may show the parent alone. Some results were stated once for a whole list of compounds, not compound by compound.

By UniProt entry, the sequences of proteins in these tests, tags left out.
UniProt P34972, whole entry: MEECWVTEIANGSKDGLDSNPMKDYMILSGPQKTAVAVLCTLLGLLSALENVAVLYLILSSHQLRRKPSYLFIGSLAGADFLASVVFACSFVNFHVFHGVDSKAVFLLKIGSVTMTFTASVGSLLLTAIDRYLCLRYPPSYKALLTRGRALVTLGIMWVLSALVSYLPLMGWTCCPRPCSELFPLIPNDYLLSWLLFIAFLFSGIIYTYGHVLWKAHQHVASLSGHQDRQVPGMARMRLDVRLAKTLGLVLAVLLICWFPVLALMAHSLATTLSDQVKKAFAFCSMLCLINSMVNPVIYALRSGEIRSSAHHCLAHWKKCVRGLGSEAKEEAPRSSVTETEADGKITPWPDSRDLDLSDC

Biological target: T1, human cannabinoid CB2 receptor (Homo sapiens, UniProt P34972)
T1 construct: expressed in transfected cells; host or cells: Saccharomyces cerevisiae strain MMY23 (cassette integrated at the ura3 locus, GPD promoter)
Assay: Cannabinoid CB2 receptor agonist activity in yeast cells (FDGlu fluorescence)
Type: cell-based
Settings: Emax relative to HU210; yeast expressing human CB2
Method: The cannabinoid CB2 receptor agonist activity of the compounds of formula (I) was determined in accordance with the following experimental method.
Yeast (Saccharomyces cerevisiae) cells expressing the human cannabinoid CB2 receptor were generated by integration of an expression cassette into the ura3 chromosomal locus of yeast strain MMY23. This cassette consisted of DNA sequence encoding the human CB2 receptor flanked by the yeast GPD promoter to the 5′ end of CB2 and a yeast transcriptional terminator sequence to the 3′ end of CB2. […]
Agonists were prepared as 10 mM stocks in DMSO. […] After incubation at 30° C. for 24 hours, fluorescence resulting from degradation of FDGlu to fluorescein due to exoglucanase, an endogenous yeast enzyme produced during agonist-stimulated cell growth, was determined using a Spectrofluor microtitre plate reader (Tecan; excitation wavelength: 485 nm; emission wavelength: 535 nm). Fluorescence was plotted against compound concentration and iteratively curve fitted using a four parameter fit to generate a concentration effect value. Efficacy (Emax) was calculated from the equation
Equieffective molar ratio (EMR) values were calculated from the equation

Compound	efficacy value (Emax) at the cloned human cannabinoid CB2 receptor [%]
CC(C)c1cc(Nc2cccc(Cl)c2)ncc1CN1CCC1 [Example 59, (5-Azetidin-1-ylmethyl-4-isopropyl-pyridin-2-yl)-(3-chloro-phenyl)-amine.dihydrochloride]	> 50
Fc1ccc(CNCc2cnc(Nc3ccc(Cl)cc3Cl)cc2C(F)(F)F)cc1 [Example 54, (2,4-Dichlorophenyl)-{5-[(4-fluoro-benzylamino)-methyl]-4-trifluoromethyl-pyridin-2-yl}-amine]	> 50
